Data published in publication PMC7411154.
No constants are given. Whether binding was seen depends on the method and setting. Binding seen in cells or lysates may run through a third protein. Some results given as binding are weak or reduced against the parent protein; the word gives no strength.

Amino acid sequences for entries named in this document (tags omitted).
UniProt Q9BR76: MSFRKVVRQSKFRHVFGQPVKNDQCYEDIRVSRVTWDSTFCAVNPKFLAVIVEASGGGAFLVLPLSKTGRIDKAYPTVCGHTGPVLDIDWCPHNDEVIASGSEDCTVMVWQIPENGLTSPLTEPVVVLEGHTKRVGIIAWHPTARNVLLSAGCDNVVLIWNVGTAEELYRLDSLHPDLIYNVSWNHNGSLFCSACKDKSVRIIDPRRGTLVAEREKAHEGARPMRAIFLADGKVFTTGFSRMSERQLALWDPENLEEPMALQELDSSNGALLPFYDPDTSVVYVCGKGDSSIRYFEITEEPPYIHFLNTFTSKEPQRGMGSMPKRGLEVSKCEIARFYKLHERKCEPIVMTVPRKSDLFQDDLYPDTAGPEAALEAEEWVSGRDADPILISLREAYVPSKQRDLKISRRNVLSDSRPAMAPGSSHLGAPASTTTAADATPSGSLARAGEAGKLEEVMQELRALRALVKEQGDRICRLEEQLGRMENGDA
UniProt Q13418: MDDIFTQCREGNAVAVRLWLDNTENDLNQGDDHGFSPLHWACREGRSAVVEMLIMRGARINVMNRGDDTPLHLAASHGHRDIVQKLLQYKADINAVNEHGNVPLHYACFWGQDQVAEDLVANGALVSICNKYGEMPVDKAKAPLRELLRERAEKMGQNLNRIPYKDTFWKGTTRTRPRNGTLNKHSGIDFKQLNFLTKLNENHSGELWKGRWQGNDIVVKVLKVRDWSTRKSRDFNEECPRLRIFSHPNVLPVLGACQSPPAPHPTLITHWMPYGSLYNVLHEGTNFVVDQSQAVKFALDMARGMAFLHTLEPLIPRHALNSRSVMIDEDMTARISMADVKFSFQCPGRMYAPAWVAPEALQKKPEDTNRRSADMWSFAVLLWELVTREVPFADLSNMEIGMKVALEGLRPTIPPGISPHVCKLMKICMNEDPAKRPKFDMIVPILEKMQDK

Molecular target: Coronin 1B-GFP fusion protein (UniProt Q9BR76)
Experiment: co-IP; GFP-Trap beads with 2500 μg lysate of HMECs stably expressing Coro1B-GFP or GFP (control), 2 h at 4°C; lysis buffer with 150 mM sodium chloride, 1% Triton-X 100, 1% sodium deoxycholate; Western blot for Coro1B and ILK

binding: binds
Substance: integrin-linked kinase (ILK) (from UniProt Q13418 1-452)
